No constants are given. Whether binding was seen depends on the method and setting. Binding seen in cells or lysates may run through a third protein. A yes stands for co-enrichment or nearness to the bait. Other partners may have been found.
B1: MglA (Bd3734) (protein, UniProt Q6MH29 1-197)
chain: MSFINYNAKEIHCKVVYYGPSLGGKTTNIQWVYQKTAEDQKSKLVALNTDIERTLFFDFLPLNVGDIRGFKTRFHLYTVPGQVVYDASRKLILKGLDGVIFVADSQIERMDENLESLRNLERNLEQQGYDIREIPLIMQYNKRDLPNVASLAELRSALNPYNAPEIEGCASEGRGVFESLKTVSKSIINVLKGGTTL
B2: HptG (protein, UniProt P61184 1-625)
chain: MAKQVQNFNAEIKQLLDIVIHSLYSHKEIFLRELLSNASDAIDKLKFNSLTHPSLLPENWQPAIRLEPNSETKTLKIIDNGIGMTQEEVVEFIGTIARSGAKAFMQMNAEMKTKPELIGQFGVGFYSAFMVADRVTLHTQKAGSNDGTVWESMGDGTYSLDSVPRPEGTGTTITLHMKDFKEEDEVQNFTDKWVLKSLVKKYSDFIAHPIKMMGETEEETLNSQKALWLKSPSEVTKEEYKEFYQHLTHDWNEPLRTVHYRAEGTMEFNALLYVPGKKPWNYNMRDMEYGLSLYIKRVFIMADCKDLLPPYLRFVKGLVDSSDLSLNVSRELLQQDRQVTQIRKNVTNKALSTLKDLLTKERSAYEDFWTEFGATLKEGLPSDAANKEKLQDLLLFHSTSSDKMTTMDEYVARMKETQKDIYYITGDSLSQVSNSPYLEKLKEKGFEVLLLVDPVDEWVVDALSEFKGKKLQSIMREGLDLDTAEEKQQKEQEKKQAEVTLKPVLESMKKTLESDVKDVVLSDRLTNTPACLVASSADPSAHMQKLMAQMGKEYAGQQVKRIMEINPNHPVFEKMLKASPEQQTKWAEILYAQALLTEGSNLPDPVKFSQQIAELMVQAADSTKH

How the values were obtained:
[1] = biological target: RomR-miniTurbo (Bdellovibrio bacteriovorus HD100); test: proximity labelling
[2] = biological target: DivIVA-miniTurbo (Bdellovibrio bacteriovorus HD100); test: proximity labelling

| Binder | binding [1] | binding [2] |
| --- | --- | --- |
| B1 | binds |  |
| B2 |  | binds |

— publication doi:10.1101/2023.11.29.569176
